Experimental findings from PubChem BioAssay AID445 (National Center for Advancing Translational Sciences (NCATS), 2006) are described below.

This experiment can be described thus: IkB Signaling. The settings on record: ABC-DLBCL IkBa-CBG/CBR dual luciferase ratio (green luciferase fused to IkBa over red control in OCI-Ly3 lymphoma cells), 4 h. In short, it runs like this:
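Luminescence ratio of IκBα-fused green versus native red beetle luciferase in OCI-Ly3 cells, 4 h post-doxycycline with compound; red signal alone, scaled from basal (0%) to zero light (-100%), flagged nonspecific or cytotoxic effects.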

Where [1] appears, read: measured here: control luc red channel unless noted.
[2] abbreviates: measured here: IkB-luc green channel.
The mark [3] stands for this setting: measured here: control luc red channel.

The structures appear in SMILES notation. Values joined by “and” are separate entries in the source; they are usually repeats but may differ in a detail not shown here. Equal entries are not always repeated. This is one part of the list. The main result of the screen is listed elsewhere. These columns were measured beside it and carry no call. Compounds called inactive in the main read-out are mostly missing here. The note in brackets gives the kind of curve behind each potency; many fits are weak.

A word on the AC50: it is the midpoint of the concentration-response curve, whichever way the signal moves. For `CCOc1ccc(NC(=O)c2cnn3c(C(F)F)cc(-c4ccc(C)cc4)nc23)cc1`, the concentration at half-maximal activity (AC50) under setting [1] is 25.1 µM [rising, partial curve, poor fit]. On the same count and under the same terms, to `CC(C)c1cc(C(=O)Nc2cccc(Cl)c2)no1` belongs 10 µM [falling, partial curve]. `CCc1ccc(Sc2cc(C(=O)NCCCN3CCCC(C)C3)c3ccccc3n2)cc1` (stereo not drawn): the AC50 under setting [1] is 0.0631 µM [falling, full curve, poor fit]. Consider `Cc1ccccc1CCNCc1c(C(=O)O)c(C)n(Cc2c(F)cccc2Cl)c1C`, for which the concentration at half-maximal activity (AC50) under setting [1] was 15.8 µM [falling, partial curve]. With `Cc1ccc(-n2ncc(C(=O)N3CCN(C4CCCCC4)CC3)c2C2CCN(C(=O)OC(C)(C)C)CC2)cc1`, the AC50 under setting [1] was 39.8 µM [falling, single point]. On the same count and under the same terms, to `COc1cccc(OCCn2cc(C(=O)c3ccco3)c3ccccc32)c1` belongs 0.0501 µM [falling, full curve].

Regarding `CCCCCCNc1ncnc2c1sc1nc(N3CCOCC3)c3c(c12)CCCC3`, the AC50 under setting [1] is 1 µM [rising, full curve, poor fit].

Regarding `CCCCSCCCNC(=O)c1cc(-c2cccnc2)nc2ccc(S(=O)(=O)N3CCC(C)CC3)cc12`, the half-maximal activity concentration (AC50) under setting [1] was 39.8 µM [rising, single point]. On the same count and under the same terms, to `Cc1oc2ccc(O)c(CN3CCN(Cc4ccccc4)CC3)c2c1C(=O)Nc1cccc(Cl)c1C` belongs 15.8 µM [falling, partial curve]; to `O=C(Nc1ccc(Oc2ccccc2)cc1)C1CCN(S(=O)(=O)c2ccccc2)CC1`, 7.94 µM [falling, full curve]. On to `CCOC(=O)c1ccc(NC(=O)c2ccc3c(c2)CCN3S(=O)(=O)c2ccc(Cl)cc2)cc1`, for which the AC50 under setting [1] is 10 µM [falling, partial curve].

With `COc1ccc(CNC(=O)c2cc(Nc3ccc(OC)cc3OC)nc3ccccc23)cc1`, the AC50 under setting [1] was 2 µM [falling, full curve]. For the compound `Cc1ccc(C)c(CN2C(=O)c3ccccc3Sc3ccc(C(=O)NCCCOC(C)C)cc32)c1`, the AC50 under setting [1] is 31.6 µM [falling, single point]. Still for that read-out and setting: to `O=C(CSc1n[nH]c(-c2ccccc2Cl)n1)N1CCN(c2ccc(F)cc2)CC1` belongs 39.8 µM [falling, single point]; to `O=c1nc2c(-c3ccccc3F)n[nH]n2c2ccccc12`, 0.0251 µM [falling, full curve]; to `COC(=O)c1cc(Cl)ccc1NC(=O)Cn1c(C)cc(C)c(C#N)c1=O`, 20 µM [falling, partial curve]. The same measure, in the same setting: to `CC(C)NC(=O)c1nn(C)c2c1CS(=O)(=O)c1ccccc1-2` belongs 25.1 µM [falling, single point]; to `CCOC(=O)N1CCC(N(CCOC)C(=O)Nc2ccc(Cl)c(Cl)c2)CC1`, 12.6 µM [falling, partial curve]; to `CC(=O)Nc1ccc2nc(SCc3ccccc3)sc2c1`, 1.58 µM [rising, partial curve]. Take `CCOC(=O)Cc1cnc(NC(=O)Cn2nnc(-c3ccc(OCC)cc3)n2)s1`: the concentration at half-maximal activity (AC50) under setting [1] was 31.6 µM [falling, partial curve]. Still for that read-out and setting: to `Clc1ccc(CN2CCc3nc(Nc4ccc5c(c4)OCCO5)ncc3C2)cc1` belongs 31.6 µM [falling, partial curve]. Still for that read-out and setting: to `Cc1cc(C(=O)Nc2nnc(C(F)(F)F)s2)no1` belongs 10 µM [falling, partial curve]. `CCOc1ccccc1CN(CCc1ccc2c(c1)OCO2)Cc1cc(OC)c(OC)cc1OC`: under setting [1], the concentration at half-maximal activity (AC50) is 25.1 µM [falling, single point]. On to `Cc1ccccc1C(=O)NCc1ccc2c(c1)CCN2C(=O)c1ccccc1`, for which the AC50 under setting [1] is 25.1 µM [falling, partial curve]. Still for that read-out and setting: to `CCOC(=O)N1CCC(NC(=O)c2cnn(-c3cccc(C)c3)c2C2CCN(C(=O)OC(C)(C)C)CC2)CC1` belongs 25.1 µM [falling, partial curve]; to `COc1ccc(CNC(=O)C(=O)NCC(c2cccs2)S(=O)(=O)c2ccc(C)cc2)cc1` (stereo not drawn), 39.8 µM [falling, single point]; to `O=C(c1ccc(F)cc1)N1c2ncnn2C2(CCCCC2)[C@@H]2CCCC[C@@H]21`, 12.6 µM [falling, partial curve]. Still for that read-out and setting: to `CCn1c(SCC(=O)Nc2cccc(Cl)c2)nnc1-c1nonc1NC(C)=O` belongs 39.8 µM [falling, single point]; to `CCSC1=NC2(CCN(C(=O)NC3CCCCC3)CC2)N=C1c1ccc(C)c(C)c1`, 12.6 µM [falling, partial curve]; to `Cc1noc(C)c1S(=O)(=O)NCCc1csc2nc(-c3ccc(F)cc3)nn12`, 25.1 µM [falling, partial curve]. Turning to `COc1ccc(OC)c(NC(=O)CCc2c(C)nc3c(-c4ccccc4)c(C)nn3c2C)c1`, under setting [1], the AC50 was 15.8 µM [falling, partial curve]. Same read-out and setting: to `CCCN(CCC)CCNC(=O)c1cc(Sc2ccc(Cl)cc2)nc2ccccc12` belongs 12.6 µM [falling, partial curve]. Still for that read-out and setting: to `Cc1ccc(S(=O)(=O)NCCCCCC(=O)Nc2nccs2)cc1` belongs 31.6 µM [falling, partial curve]; to `Cc1cccc(CSCCNC(=O)CN(c2ccccc2)S(=O)(=O)N(C)C)c1`, 25.1 µM [falling, partial curve].

Turning to `CCN(c1ccccc1)S(=O)(=O)c1nnc(NC(=O)COc2ccccc2F)s1`, the AC50 under setting [1] was 10 µM [falling, partial curve].

With `COc1ccc(-c2[nH]ncc2C(=O)NCc2ccccc2OC)cc1`, the concentration at half-maximal activity (AC50) under setting [1] was 20 µM [falling, single point]. On the same count and under the same terms, to `Cc1ccc(Nc2cc(-c3ccccc3)nc(C)n2)cc1` belongs 39.8 µM [falling, single point]. As for `COc1cc2c(c(OC)c1OC)-c1ccc(OC)c(=O)cc1[C@H](NC(C)=O)CC2`, the AC50 under setting [2] is 398 nM [rising, full curve] and 126 nM [rising, full curve] and 316 nM [rising, full curve]; the AC50 under setting [3] was 158 nM [rising, full curve] and 126 nM [rising, full curve] and 251 nM [rising, full curve]. For `CC(=O)Nc1ccc(S(=O)(=O)Nc2ccc3c(c2)n(C)c(=O)n3C)c(C)c1`, the AC50 is, setting by setting: under setting [2], 20 µM [rising, partial curve]; under setting [3], 1.58 µM [rising, partial curve].

Take `CCc1ccc(C2C(C#N)=C(N)SC(N)=C2C#N)cc1`: the half-maximal activity concentration (AC50) under setting [1] was 15.8 µM [falling, partial curve]. On the same count and under the same terms, to `N#CCSc1n[nH]c2nc3c(c(=O)n12)C1(CCCC1)Cc1ccccc1-3` belongs 25.1 µM [falling, partial curve]; to `CCc1ccc2oc(C(=O)Nc3nc(-c4ccccc4)ns3)c(C)c2c1`, 39.8 µM [falling, single point]. Take `O=C(Nc1nc(-c2nc3ccccc3s2)cs1)C1COc2ccccc2O1` (stereo not drawn): the half-maximal activity concentration (AC50) under setting [1] was 6.31 µM [falling, full curve].

Turning to `Cc1c(C(=O)N(C)C)sc2c1c(=O)n(-c1ccc(F)cc1)c(=O)n2CC(=O)N(C)c1ccccc1`, the concentration at half-maximal activity (AC50) under setting [1] is 0.0316 µM [rising, full curve, poor fit]. Same read-out and setting: to `Cc1ccc(C)c(NC(=O)Cn2c(=O)oc3cc(S(=O)(=O)NCc4ccccc4)ccc32)c1` belongs 25.1 µM [falling, single point]; to `Cc1cc2oc(C(=O)Nc3ccc(S(=O)(=O)Nc4onc(C)c4C)cc3)cc(=O)c2cc1C`, 12.6 µM [falling, partial curve]; to `CCOc1ccc(-n2c(SC(C)C(=O)OC)nc3c([nH]c4ccccc43)c2=O)cc1` (stereo not drawn), 25.1 µM [rising, single point]. As to `Cc1ccccc1C(=O)Nc1sc2c(c1C(=O)N1CCC(C)CC1)CCCC2`, the AC50 under setting [1] is 12.6 µM [falling, single point]. Same read-out and setting: to `CCN(CCCNC(=O)c1cc2c(=O)[nH]c3ccc(C)cc3c2s1)Cc1ccccc1` belongs 31.6 µM [falling, partial curve]; to `Cc1ccc(NC(=O)c2ccc(S(=O)(=O)N3CCCC3)cc2)cc1`, 15.8 µM [falling, partial curve]; to `CC(C)CCNC(=O)c1cccc(-n2cnc3cccnc32)c1`, 39.8 µM [falling, single point]. On to `Cc1ccc(C(=O)COC(=O)c2cccc(NC(=O)c3ccc(Br)cc3)c2)cc1`, for which the AC50 under setting [1] was 7.94 µM [falling, partial curve]. The same measure, in the same setting: to `CCCn1nc(NC(=O)c2cccs2)c2cc3cc(OC)ccc3nc21` belongs 7.94 µM [falling, full curve].

Turning to `COc1cccc(CNC(=O)Cn2c(SCC(=O)Nc3ccc(F)cc3)nc3ccccc32)c1`, the AC50 under setting [2] is 0.0158 µM [rising, full curve, poor fit] and the AC50 under setting [3] is 31.6 µM [falling, single point]. On to `Cc1ccc2c(c1)-c1c(c(C(=O)NCCc3ccccc3)nn1C)CS2`, for which, under setting [1], the AC50 was 12.6 µM [falling, partial curve].

With `CCCN(C(=O)Cc1c(C(=O)O)[nH]c2ccc(Cl)cc12)c1ccc(OCC)cc1`, the AC50 under setting [1] is 12.6 µM [falling, partial curve]. On the same count and under the same terms, to `CCOCCCNC(=O)c1[nH]c2cc(OC)ccc2c1Sc1ccccc1` belongs 7.94 µM [falling, partial curve]; to `Cc1cccc(N(CC(=O)Nc2cccc(Cl)c2C)S(C)(=O)=O)c1C`, 25.1 µM [falling, partial curve]; to `COc1ccccc1C(=O)Nc1ccccc1SCc1cc(=O)c2ccccc2[nH]1`, 0.158 µM [falling, full curve].

Consider `Cc1nnc(SCC(=O)NCc2ccc(N(C)C)cc2)c2nn(-c3ccccc3)c(C)c12`, for which, under setting [1], the AC50 was 15.8 µM [falling, partial curve].
